PubChem BioAssay AID504808 | Drosophila RNAi Screening Center | 2011
Assay: 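Chromatin factors that keep E2F targets switched off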 (primary screen). Cells: Drosophila S2 cells. Reagents: long dsRNA against Drosophila genes. Detection: 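Dual luciferase plate measurements; E2F-specific signal taken as firefly over Renilla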. Scale: E2F firefly: higher = more E2F reporter activity; Renilla normaliser: higher = more normaliser reporter signal. Rule for the call: 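Called active if the normalised E2F reporter went up by over 50%; the cutoff is arbitrary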.
In all, the deposit lists about 21,000 reagents; this is a random part of those that have a named target and a result. Over the whole deposit, 18 (0.084%) got an active call. 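Raw counts without plate normalisation, one of two replicates; the ratio scores behind the calls were not deposited.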 The numbers tell different reagents against one gene apart. No sequences are given here. Not stated in the record: the amount of reagent, the time to read-out.

Knock-down of capu (GeneID 33611) #1 gave: E2F firefly, rep 1 = 1.33e5; Renilla normaliser, rep 1 = 5519; inactive.
capu (GeneID 33611) #2 scored E2F firefly, rep 1 = 1.32e5; Renilla normaliser, rep 1 = 5518; inactive.
capu (GeneID 33611) #3 scored E2F firefly, rep 1 = 1.57e5; Renilla normaliser, rep 1 = 5038; inactive.
Against capu (GeneID 33611) #4 the deposit lists E2F firefly, rep 1 = 92802; Renilla normaliser, rep 1 = 4421; inactive.

Individual results from above.
capu (GeneID 33611) #4, E2F firefly, rep 1 = 92802
Under “E2F firefly, rep 1”, capu (GeneID 33611) #1 shows 1.33e5

Further entries:
For kdn (GeneID 31579), the entry reads E2F firefly, rep 1 = 6018; Renilla normaliser, rep 1 = 324; inactive.
CG18476 (GeneID 41404) gave E2F firefly, rep 1 = 75177; Renilla normaliser, rep 1 = 4099; inactive.
Silencing of rdhB (GeneID 42614) resulted in: E2F firefly, rep 1 = 80818; Renilla normaliser, rep 1 = 4204; inactive.
With knock-down of CG7409 (GeneID 38870) the results were E2F firefly, rep 1 = 86720; Renilla normaliser, rep 1 = 3536; inactive.
For CG6071 (GeneID 39308), the values are E2F firefly, rep 1 = 1.16e5; Renilla normaliser, rep 1 = 6827; inactive.
FASN1 (GeneID 33524) showed E2F firefly, rep 1 = 65798; Renilla normaliser, rep 1 = 4003; inactive.
After knock-down of BORCS5 (GeneID 32145), the screen gave E2F firefly, rep 1 = 8434; Renilla normaliser, rep 1 = 772; inactive.
CG8188 (GeneID 32751) showed E2F firefly, rep 1 = 1.42e5; Renilla normaliser, rep 1 = 7451; inactive.
